In the supplement of paper PMC11006884:
This is a selection; strong and weak results do not stand in their true shares. This is a noisy data set.

Amino acid sequences for entries named in this document (tags omitted). A change or cut given only in a name is not applied to a line headed by its entry.
UniProt O15213: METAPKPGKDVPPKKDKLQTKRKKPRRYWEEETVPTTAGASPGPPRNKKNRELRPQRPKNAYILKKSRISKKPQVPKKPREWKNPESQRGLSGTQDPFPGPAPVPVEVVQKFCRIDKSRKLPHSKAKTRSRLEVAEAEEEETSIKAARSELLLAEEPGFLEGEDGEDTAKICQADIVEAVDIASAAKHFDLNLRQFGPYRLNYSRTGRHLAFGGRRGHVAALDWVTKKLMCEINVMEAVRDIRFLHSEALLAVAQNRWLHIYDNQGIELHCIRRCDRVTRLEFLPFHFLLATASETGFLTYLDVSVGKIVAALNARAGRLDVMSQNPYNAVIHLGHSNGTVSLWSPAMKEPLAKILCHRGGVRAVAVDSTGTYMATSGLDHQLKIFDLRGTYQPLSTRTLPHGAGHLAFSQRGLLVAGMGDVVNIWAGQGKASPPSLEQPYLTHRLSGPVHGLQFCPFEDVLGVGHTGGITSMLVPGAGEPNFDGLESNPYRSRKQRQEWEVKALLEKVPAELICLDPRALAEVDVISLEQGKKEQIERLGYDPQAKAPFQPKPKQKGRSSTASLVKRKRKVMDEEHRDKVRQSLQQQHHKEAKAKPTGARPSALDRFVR
UniProt O14745: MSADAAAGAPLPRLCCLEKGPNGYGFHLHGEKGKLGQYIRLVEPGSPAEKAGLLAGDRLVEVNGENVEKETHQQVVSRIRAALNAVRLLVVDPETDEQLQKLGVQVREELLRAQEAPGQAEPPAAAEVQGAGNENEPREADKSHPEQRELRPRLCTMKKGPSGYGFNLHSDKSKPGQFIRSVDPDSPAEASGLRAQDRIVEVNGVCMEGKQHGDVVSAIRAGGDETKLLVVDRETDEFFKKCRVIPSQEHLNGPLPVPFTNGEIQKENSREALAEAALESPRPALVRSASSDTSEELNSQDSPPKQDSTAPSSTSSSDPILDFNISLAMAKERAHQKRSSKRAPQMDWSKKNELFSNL
UniProt O14733: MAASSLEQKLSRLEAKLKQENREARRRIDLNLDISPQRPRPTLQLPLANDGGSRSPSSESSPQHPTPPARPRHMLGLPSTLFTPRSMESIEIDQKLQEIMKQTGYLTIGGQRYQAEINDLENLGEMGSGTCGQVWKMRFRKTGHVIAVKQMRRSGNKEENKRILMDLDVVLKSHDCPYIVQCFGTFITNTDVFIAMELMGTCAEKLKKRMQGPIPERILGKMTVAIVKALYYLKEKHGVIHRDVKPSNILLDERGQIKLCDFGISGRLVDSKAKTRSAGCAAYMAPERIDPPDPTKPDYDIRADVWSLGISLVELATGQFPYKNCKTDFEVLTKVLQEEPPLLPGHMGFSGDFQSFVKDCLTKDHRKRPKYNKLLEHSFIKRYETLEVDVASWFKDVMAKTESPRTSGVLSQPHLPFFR
UniProt Q96PC5: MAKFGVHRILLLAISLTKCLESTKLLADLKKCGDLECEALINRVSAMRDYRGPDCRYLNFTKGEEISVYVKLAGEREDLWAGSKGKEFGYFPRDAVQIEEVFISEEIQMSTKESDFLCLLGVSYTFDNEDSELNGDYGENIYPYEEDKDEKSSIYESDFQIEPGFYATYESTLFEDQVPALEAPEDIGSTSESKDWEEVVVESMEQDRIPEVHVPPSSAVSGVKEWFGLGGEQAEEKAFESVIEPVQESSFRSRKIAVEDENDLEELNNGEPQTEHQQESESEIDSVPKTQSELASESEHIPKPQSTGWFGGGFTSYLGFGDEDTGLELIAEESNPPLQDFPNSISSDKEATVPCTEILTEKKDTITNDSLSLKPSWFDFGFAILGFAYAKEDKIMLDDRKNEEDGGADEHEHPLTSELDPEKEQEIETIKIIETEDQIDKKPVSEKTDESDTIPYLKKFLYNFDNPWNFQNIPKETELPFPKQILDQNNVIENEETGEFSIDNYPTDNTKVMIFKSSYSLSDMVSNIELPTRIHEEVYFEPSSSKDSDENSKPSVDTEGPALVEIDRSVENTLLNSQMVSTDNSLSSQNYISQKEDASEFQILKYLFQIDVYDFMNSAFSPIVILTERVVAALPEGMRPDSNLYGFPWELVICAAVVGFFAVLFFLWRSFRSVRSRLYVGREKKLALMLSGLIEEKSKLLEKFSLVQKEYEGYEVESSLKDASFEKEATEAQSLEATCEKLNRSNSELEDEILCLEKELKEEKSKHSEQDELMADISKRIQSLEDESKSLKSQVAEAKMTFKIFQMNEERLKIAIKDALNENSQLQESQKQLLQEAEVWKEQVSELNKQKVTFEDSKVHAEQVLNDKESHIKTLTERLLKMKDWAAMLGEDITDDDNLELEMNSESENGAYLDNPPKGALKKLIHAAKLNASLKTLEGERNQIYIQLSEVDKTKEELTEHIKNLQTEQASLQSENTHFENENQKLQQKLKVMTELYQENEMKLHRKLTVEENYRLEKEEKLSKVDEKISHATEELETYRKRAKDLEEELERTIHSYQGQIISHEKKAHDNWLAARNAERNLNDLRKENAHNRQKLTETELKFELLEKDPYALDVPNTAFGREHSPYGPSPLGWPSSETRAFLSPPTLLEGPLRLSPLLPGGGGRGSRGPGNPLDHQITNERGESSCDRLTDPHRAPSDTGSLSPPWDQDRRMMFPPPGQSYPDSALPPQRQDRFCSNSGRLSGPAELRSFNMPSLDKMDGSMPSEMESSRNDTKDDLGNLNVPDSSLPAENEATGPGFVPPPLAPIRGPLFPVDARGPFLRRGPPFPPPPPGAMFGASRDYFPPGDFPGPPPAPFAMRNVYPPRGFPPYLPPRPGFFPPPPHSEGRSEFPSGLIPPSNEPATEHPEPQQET
UniProt O00571: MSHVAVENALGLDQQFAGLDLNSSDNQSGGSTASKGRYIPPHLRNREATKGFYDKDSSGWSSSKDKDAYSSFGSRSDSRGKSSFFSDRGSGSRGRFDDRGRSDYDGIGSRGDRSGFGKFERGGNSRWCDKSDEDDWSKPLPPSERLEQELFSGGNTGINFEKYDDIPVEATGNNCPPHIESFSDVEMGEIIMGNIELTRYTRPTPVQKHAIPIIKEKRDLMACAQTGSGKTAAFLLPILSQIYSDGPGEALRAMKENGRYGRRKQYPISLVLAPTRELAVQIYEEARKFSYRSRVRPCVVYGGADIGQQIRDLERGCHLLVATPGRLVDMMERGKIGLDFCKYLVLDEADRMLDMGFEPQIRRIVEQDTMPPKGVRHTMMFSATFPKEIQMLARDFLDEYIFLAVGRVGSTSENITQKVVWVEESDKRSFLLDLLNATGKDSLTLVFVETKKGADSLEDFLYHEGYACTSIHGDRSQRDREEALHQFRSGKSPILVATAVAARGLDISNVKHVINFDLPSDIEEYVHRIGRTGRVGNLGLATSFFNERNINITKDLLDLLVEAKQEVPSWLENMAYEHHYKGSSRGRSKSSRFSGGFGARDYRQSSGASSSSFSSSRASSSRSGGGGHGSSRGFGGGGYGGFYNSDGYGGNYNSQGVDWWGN
UniProt O00592: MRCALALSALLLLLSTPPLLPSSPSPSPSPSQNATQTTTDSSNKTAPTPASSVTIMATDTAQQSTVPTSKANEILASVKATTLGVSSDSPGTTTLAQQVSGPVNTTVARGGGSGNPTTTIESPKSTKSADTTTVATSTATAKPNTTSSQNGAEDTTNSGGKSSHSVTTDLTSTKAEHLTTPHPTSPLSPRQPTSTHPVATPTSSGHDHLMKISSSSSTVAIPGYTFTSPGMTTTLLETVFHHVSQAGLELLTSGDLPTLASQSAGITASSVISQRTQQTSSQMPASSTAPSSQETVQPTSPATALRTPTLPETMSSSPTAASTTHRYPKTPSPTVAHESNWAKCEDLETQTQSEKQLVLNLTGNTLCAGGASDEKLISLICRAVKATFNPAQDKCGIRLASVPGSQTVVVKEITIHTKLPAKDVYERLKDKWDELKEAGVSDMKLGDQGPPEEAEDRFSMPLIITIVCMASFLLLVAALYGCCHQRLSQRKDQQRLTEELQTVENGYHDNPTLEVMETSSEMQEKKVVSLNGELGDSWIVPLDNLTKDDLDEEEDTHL
UniProt O00303, whole entry: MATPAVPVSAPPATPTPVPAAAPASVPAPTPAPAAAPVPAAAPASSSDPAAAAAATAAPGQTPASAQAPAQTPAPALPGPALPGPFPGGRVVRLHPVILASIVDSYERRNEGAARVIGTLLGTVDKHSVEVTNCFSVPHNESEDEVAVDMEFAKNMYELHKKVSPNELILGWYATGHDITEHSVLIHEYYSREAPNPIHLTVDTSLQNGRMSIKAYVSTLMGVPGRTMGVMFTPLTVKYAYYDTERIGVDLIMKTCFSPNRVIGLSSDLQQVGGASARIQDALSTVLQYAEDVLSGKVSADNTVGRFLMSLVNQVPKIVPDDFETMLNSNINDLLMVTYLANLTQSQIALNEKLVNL
UniProt O14980, whole entry, looked up: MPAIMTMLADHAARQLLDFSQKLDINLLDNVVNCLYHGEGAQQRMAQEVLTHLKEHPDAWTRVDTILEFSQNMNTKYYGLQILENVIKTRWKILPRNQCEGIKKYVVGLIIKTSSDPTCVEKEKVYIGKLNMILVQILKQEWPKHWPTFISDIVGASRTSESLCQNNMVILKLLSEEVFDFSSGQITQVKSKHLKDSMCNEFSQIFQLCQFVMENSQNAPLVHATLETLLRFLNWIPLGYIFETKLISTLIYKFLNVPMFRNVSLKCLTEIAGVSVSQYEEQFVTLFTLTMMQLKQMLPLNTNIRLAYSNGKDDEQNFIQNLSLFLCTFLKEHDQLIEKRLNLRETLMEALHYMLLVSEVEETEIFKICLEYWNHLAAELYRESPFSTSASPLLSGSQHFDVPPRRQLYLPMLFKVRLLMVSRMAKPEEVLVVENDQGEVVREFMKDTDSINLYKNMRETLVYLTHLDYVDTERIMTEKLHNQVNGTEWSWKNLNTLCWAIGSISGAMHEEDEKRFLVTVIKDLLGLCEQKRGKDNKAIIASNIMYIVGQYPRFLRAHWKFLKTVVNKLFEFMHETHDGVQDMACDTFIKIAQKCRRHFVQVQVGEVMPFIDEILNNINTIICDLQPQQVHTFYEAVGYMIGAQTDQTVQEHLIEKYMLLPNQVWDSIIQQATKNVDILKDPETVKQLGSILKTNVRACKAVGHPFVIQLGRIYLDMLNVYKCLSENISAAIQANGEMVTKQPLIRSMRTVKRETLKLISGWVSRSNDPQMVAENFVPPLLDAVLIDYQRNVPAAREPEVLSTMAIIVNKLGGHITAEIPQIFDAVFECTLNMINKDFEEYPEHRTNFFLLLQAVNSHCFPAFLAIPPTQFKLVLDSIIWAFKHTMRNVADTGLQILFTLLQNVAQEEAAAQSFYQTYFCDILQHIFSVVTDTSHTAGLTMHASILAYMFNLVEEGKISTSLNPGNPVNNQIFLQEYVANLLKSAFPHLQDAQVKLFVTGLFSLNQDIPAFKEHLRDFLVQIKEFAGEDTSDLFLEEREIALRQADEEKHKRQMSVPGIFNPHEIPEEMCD
UniProt O14893: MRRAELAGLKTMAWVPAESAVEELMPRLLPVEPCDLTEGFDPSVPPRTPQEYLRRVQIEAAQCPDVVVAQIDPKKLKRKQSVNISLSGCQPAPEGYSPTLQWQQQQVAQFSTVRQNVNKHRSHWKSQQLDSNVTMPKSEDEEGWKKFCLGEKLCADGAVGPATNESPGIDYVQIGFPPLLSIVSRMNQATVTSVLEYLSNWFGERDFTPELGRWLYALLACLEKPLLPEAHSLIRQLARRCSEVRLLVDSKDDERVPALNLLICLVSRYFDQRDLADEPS
UniProt O15381: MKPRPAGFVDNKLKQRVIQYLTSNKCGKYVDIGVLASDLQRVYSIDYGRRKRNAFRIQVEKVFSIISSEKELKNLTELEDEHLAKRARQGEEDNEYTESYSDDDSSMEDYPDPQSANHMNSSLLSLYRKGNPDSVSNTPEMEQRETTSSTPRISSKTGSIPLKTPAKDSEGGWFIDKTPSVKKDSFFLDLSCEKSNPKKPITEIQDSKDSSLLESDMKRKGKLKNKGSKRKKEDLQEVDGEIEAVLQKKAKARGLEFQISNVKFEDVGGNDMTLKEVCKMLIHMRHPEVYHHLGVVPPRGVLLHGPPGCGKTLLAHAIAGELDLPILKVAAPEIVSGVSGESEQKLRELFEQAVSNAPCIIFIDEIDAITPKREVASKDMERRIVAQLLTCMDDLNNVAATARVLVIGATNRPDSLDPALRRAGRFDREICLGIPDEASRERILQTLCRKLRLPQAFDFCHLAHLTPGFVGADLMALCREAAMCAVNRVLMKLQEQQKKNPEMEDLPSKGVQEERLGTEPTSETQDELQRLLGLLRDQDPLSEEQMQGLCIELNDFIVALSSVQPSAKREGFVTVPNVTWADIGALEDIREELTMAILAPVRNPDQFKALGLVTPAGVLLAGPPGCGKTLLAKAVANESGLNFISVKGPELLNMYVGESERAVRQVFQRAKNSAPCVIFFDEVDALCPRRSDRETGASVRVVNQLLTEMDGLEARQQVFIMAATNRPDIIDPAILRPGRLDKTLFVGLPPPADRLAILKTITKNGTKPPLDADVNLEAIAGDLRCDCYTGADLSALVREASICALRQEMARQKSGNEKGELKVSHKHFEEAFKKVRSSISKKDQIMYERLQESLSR

What follows are targets tested with COC(=O)/C=C/c1ccccc1 [methyl cinnamate] (assay: log2 ratio of iodoacetamide-alkyne labeling of the cysteine site, DMSO over compound (competition); higher = stronger covalent engagement of the cysteine by the compound, active = 1 or more). Details: 500 µM; treatment time 1 h; system: HEK293T cell lysate.
How it was run: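 HEK293T lysate (2 mg/mL) was treated with DMSO or electrophile (500 µM, 1 h, ambient temperature), then iodoacetamide alkyne (1 h), clicked to sCIP-TMT reagents, pooled, trypsin-digested overnight at 37 °C, streptavidin-enriched and acid-eluted. Peptides were run on Orbitrap Eclipse LC-MS/MS with FAIMS and quantified in FragPipe. The log2 competition ratio per cysteine is mean control-channel over mean compound-channel reporter intensity. Duplicate channels and three replicates were used, and cysteines quantified in only one replicate were excluded.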

log2 ratio of iodoacetamide-alkyne labeling, inactive:
ARVCF C770 (UniProt O00192) -0.0993
WDR46 C172 (UniProt O15213) 0.511
MYO1C C161 (UniProt O00159) -0.0131
PSMD12 C31 (UniProt O00232) -0.219
SLC9A3R1 C16 (UniProt O14745) 0.0571
UniProt O14733_C131 -0.15
HGS C212 (UniProt O14964) 0.149
SUPT5H C740 (UniProt O00267) 0.0441
KMT2D C2249 (UniProt O14686) 0.51
INPPL1 C5 (UniProt O15357) 0.0888
O15320_C147 (UniProt Q96PC5+O15320) -0.211
DDX3X C468 (UniProt O00571) 0.0716
IRS4 C332 (UniProt O14654) 0.0576
PSMA7 C63 (UniProt O14818) 0.0314
PODXL C344 (UniProt O00592) 0.22
EIF3F C256 (UniProt O00303) 0.0642
NKRF C424 (UniProt O15226) 0.165
XPO1 C829 (UniProt O14980) 0.0643
GEMIN2 C63 (UniProt O14893) -0.00803
KIF2A C406 (UniProt O00139) 0.0558
NVL C626 (UniProt O15381) 0.0717

A stretch taken from the entries so far, for reference:
log2 ratio of iodoacetamide-alkyne labeling, inactive:
DDX3X C468 (UniProt O00571) 0.0716
IRS4 C332 (UniProt O14654) 0.0576
